Among the data in paper PMC12329599, “Acetylation of microtubule-binding PinX1 orchestrates ribosome biogenesis to nutrient starvation via the RNA polymerase I preinitiation complex” (The Journal of Biological Chemistry, 2025) are binding values, retold here.

Amino acid sequences for entries named in this document (tags omitted).
UniProt O15379: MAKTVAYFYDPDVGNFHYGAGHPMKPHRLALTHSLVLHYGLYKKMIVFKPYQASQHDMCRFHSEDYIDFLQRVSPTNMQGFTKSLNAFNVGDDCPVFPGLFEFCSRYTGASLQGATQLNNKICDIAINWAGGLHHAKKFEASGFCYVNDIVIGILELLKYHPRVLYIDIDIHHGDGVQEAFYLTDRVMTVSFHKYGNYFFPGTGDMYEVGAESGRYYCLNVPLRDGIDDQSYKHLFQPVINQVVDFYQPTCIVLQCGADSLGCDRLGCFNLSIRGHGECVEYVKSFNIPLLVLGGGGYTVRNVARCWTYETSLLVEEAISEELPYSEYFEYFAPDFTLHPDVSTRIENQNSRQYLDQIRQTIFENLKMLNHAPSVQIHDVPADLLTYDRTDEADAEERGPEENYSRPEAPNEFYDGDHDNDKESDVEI
UniProt Q92793: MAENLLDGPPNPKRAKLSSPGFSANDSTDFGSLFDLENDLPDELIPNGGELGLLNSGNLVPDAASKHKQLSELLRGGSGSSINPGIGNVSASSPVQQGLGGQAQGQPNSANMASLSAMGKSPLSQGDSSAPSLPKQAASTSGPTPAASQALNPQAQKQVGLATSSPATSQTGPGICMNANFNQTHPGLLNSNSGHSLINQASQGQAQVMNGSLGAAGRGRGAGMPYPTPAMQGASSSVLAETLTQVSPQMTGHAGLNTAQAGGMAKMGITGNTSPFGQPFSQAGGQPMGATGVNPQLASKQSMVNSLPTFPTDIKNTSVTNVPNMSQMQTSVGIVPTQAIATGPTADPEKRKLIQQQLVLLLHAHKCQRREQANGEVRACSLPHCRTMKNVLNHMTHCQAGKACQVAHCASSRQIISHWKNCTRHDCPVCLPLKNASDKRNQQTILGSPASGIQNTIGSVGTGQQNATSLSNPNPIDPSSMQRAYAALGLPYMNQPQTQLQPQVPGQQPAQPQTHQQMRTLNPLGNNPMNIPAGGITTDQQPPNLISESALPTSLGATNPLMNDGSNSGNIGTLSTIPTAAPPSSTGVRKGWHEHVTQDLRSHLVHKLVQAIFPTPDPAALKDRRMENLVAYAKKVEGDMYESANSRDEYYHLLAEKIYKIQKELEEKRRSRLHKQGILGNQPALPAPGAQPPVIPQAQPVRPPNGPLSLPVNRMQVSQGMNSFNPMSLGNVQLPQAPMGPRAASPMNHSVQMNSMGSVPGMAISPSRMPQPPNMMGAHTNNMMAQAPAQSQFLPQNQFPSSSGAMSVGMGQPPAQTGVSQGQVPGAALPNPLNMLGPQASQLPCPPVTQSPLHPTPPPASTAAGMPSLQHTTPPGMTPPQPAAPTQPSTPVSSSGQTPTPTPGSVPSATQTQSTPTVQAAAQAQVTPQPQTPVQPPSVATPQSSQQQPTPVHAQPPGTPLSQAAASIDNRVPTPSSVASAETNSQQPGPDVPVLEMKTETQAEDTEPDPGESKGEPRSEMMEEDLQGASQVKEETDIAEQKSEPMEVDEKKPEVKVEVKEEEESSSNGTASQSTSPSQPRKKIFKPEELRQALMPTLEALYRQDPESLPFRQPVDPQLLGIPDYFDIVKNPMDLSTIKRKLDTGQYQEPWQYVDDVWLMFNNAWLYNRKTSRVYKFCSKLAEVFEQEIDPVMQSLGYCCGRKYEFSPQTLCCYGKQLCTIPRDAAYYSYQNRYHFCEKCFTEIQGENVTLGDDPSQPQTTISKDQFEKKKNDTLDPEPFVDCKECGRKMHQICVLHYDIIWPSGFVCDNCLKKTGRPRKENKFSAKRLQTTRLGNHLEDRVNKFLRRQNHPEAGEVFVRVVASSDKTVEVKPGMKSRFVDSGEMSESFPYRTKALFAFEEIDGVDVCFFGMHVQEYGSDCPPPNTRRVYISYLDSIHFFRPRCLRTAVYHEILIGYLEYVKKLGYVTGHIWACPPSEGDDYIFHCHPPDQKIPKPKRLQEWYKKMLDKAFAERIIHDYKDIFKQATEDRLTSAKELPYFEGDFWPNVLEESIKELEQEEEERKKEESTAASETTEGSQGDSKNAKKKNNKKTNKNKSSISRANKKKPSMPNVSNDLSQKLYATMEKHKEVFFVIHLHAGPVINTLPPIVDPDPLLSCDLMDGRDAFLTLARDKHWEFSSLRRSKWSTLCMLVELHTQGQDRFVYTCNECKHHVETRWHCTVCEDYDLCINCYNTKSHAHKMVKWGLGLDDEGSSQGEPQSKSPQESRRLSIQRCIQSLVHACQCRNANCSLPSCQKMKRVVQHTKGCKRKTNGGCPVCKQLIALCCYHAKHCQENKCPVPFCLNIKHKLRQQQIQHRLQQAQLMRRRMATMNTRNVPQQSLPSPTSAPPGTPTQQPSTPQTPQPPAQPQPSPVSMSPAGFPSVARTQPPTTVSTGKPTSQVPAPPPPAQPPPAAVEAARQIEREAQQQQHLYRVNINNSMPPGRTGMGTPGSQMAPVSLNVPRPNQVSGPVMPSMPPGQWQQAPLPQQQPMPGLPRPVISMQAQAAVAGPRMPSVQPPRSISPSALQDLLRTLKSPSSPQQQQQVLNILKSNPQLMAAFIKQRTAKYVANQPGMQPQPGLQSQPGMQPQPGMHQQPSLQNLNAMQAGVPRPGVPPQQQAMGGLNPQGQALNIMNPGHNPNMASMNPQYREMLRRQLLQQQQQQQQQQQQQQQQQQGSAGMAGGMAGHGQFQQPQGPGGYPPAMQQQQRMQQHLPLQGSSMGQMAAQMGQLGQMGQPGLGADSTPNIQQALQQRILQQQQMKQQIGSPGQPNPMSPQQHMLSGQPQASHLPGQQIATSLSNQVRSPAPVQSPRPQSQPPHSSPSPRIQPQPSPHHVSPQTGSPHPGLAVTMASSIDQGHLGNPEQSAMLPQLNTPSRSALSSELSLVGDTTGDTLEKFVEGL
UniProt O15446: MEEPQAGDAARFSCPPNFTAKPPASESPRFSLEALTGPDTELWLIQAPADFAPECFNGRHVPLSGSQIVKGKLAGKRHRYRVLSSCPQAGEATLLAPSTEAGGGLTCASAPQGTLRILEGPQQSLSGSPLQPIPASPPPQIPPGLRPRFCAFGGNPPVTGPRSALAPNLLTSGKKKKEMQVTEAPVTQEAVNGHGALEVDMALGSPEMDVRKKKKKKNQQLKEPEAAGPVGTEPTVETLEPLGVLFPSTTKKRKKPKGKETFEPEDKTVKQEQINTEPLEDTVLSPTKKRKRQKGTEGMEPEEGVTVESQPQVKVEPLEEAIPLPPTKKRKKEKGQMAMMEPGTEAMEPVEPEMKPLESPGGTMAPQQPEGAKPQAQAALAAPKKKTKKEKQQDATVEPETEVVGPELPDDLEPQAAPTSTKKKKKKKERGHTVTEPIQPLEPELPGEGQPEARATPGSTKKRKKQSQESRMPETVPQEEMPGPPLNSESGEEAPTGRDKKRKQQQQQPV
UniProt P06748: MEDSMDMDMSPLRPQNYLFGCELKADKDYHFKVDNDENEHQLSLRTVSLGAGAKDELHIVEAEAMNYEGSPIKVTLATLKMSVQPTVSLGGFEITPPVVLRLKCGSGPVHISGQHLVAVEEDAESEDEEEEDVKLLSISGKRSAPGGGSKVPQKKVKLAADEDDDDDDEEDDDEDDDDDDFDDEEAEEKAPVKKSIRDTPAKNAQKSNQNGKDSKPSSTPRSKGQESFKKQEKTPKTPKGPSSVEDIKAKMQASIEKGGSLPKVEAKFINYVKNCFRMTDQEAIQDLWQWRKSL

Assay [1] has as its target T1, PinX1-3×Flag wild type (PIN2/TRF1-interacting telomerase inhibitor 1), expressed in HEK293T cells (human) (UniProt Q96BK5).
T1 sequence: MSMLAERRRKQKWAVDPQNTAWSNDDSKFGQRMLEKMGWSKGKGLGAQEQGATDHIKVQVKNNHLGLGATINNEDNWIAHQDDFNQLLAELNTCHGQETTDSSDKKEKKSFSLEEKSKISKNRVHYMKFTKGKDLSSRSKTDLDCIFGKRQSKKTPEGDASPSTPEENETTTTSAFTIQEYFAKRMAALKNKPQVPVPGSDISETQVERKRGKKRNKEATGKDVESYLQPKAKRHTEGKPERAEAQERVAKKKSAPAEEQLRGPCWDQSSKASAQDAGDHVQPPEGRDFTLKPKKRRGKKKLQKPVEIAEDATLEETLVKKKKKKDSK
The assay is described as follows: co-IP; HEK293T cells transfected with both tagged partners; lysis in BC100 buffer, beads at 4 °C overnight, Western blot. For orientation: Immunoblotting shows a protein as a band on a membrane.

The target of assay [2] is T2, GST-PinX1 full-length (human) (UniProt Q96BK5).
T2 sequence: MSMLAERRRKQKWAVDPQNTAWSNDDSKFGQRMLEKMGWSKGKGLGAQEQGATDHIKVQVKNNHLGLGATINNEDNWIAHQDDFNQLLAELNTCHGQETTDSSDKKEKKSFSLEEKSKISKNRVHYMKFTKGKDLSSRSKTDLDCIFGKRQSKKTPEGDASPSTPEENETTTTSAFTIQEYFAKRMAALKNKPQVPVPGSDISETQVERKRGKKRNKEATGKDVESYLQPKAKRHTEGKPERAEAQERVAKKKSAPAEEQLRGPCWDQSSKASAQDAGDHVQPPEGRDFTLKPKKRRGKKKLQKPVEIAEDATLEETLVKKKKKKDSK
The assay is described as follows: pull-down; GST-PinX1 proteins on glutathione beads incubated with purified Strep2- or HA-tagged proteins in BC200 buffer (200 mM NaCl, 20 mM Tris-HCl pH 7.9, 20% glycerol, 0.2% NP-40) at 4 °C overnight; washed with BC500, BC200 or BC100; Western blot; both purified.

The target in assay [3] is T3, PinX1-3×Flag wild type, expressed in HCT116 cells (human) (UniProt Q96BK5).
T3 sequence: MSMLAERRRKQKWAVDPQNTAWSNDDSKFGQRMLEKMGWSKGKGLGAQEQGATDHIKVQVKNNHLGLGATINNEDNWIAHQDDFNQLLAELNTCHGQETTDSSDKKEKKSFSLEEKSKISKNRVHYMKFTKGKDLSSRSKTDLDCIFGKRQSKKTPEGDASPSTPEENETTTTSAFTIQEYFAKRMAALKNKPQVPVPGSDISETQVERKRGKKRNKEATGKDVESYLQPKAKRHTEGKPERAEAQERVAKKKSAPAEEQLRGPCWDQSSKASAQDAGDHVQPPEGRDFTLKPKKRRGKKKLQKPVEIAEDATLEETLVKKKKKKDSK
The assay is described as follows: co-IP; HCT116 cells transfected with both partners, with or without EBSS treatment (time course); lysis in BC100 buffer (100 mM NaCl, 20 mM Tris-HCl pH 7.9, 20% glycerol, 0.2% NP-40), beads at 4 °C overnight, Western blot.

The target of assay [4] is T4, GFP-PinX1 wild type, expressed in HEK293T cells (human) (UniProt Q96BK5).
T4 sequence: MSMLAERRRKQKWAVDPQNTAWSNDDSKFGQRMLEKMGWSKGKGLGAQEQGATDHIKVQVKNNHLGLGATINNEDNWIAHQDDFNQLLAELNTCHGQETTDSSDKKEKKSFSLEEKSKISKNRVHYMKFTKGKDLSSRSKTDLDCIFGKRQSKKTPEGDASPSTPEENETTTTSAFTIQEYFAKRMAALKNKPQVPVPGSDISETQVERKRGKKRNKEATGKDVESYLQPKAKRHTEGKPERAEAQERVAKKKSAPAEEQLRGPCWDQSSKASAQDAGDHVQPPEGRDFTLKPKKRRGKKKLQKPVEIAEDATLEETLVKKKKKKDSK
Nature of the assay: co-IP; HEK293T cells transfected with GFP-tagged PinX1; endogenous partners detected by Western blot; BC100 buffer.

In assay [5] the target is T4, GFP-PinX1 wild type, expressed in HEK293T cells (human). Nature of the assay: co-IP; HEK293T cells transfected with both tagged partners; lysis in BC100 buffer, beads at 4 °C overnight, Western blot.

These are yes or no findings as the source states them, for the method shown. For some of these results: In cells and extracts the contact can be indirect. Some results given as binding are weak or reduced against the parent protein; the word gives no strength. Tags and fused reporters may be left off the sequences shown.

With “HA-HDAC3 (from UniProt O15379 1-428) (enzyme)”, the binding result in assay [1] and in assay [2] was “binds” throughout.

For “HA-CBP, expressed in HCT116 cells (from UniProt Q92793 1-2442) (enzyme)”, in assay [3], the binding result was “binds”.

Take “HA-POLR1G (RNA polymerase I subunit G), expressed in HCT116 cells (from UniProt O15446 1-510)”: the binding entry in assay [3] is on record as “binds”.

Regarding “NPM, endogenous in HEK293T cells (from UniProt P06748 1-294)”, the binding entry in assay [4] is on record as “binds”.

“HA-POLR1G (RNA polymerase I subunit G), expressed in HEK293T cells (from UniProt O15446 1-510)”: the binding result in assay [5] and in assay [1] was “binds” throughout.

B1: HA-DDX21 (protein, UniProt Q9NR30 1-783)
chain: MPGKLRSDAGLESDTAMKKGETLRKQTEEKEKKEKPKSDKTEEIAEEEETVFPKAKQVKKKAEPSEVDMNSPKSKKAKKKEEPSQNDISPKTKSLRKKKEPIEKKVVSSKTKKVTKNEEPSEEEIDAPKPKKMKKEKEMNGETREKSPKLKNGFPHPEPDCNPSEAASEESNSEIEQEIPVEQKEGAFSNFPISEETIKLLKGRGVTFLFPIQAKTFHHVYSGKDLIAQARTGTGKTFSFAIPLIEKLHGELQDRKRGRAPQVLVLAPTRELANQVSKDFSDITKKLSVACFYGGTPYGGQFERMRNGIDILVGTPGRIKDHIQNGKLDLTKLKHVVLDEVDQMLDMGFADQVEEILSVAYKKDSEDNPQTLLFSATCPHWVFNVAKKYMKSTYEQVDLIGKKTQKTAITVEHLAIKCHWTQRAAVIGDVIRVYSGHQGRTIIFCETKKEAQELSQNSAIKQDAQSLHGDIPQKQREITLKGFRNGSFGVLVATNVAARGLDIPEVDLVIQSSPPKDVESYIHRSGRTGRAGRTGVCICFYQHKEEYQLVQVEQKAGIKFKRIGVPSATEIIKASSKDAIRLLDSVPPTAISHFKQSAEKLIEEKGAVEALAAALAHISGATSVDQRSLINSNVGFVTMILQCSIEMPNISYAWKELKEQLGEEIDSKVKGMVFLKGKLGVCFDVPTASVTEIQEKWHDSRRWQLSVATEQPELEGPREGYGGFRGQREGSRGFRGQRDGNRRFRGQREGSRGPRGQRSGGGNKSNRSQNKGQKRSFSKAFGQ
B1: the binding result in assay [5] is listed as “binds”.

B2: HA-HDAC10 (enzyme, UniProt Q969S8 1-669)
chain: MGTALVYHEDMTATRLLWDDPECEIERPERLTAALDRLRQRGLEQRCLRLSAREASEEELGLVHSPEYVSLVRETQVLGKEELQALSGQFDAIYFHPSTFHCARLAAGAGLQLVDAVLTGAVQNGLALVRPPGHHGQRAAANGFCVFNNVAIAAAHAKQKHGLHRILVVDWDVHHGQGIQYLFEDDPSVLYFSWHRYEHGRFWPFLRESDADAVGRGQGLGFTVNLPWNQVGMGNADYVAAFLHLLLPLAFEFDPELVLVSAGFDSAIGDPEGQMQATPECFAHLTQLLQVLAGGRVCAVLEGGYHLESLAESVCMTVQTLLGDPAPPLSGPMAPCQSALESIQSARAAQAPHWKSLQQQDVTAVPMSPSSHSPEGRPPPLLPGGPVCKAAASAPSSLLDQPCLCPAPSVRTAVALTTPDITLVLPPDVIQQEASALREETEAWARPHESLAREEALTALGKLLYLLDGMLDGQVNSGIAATPASAAAATLDVAVRRGLSHGAQRLLCVALGQLDRPPDLAHDGRSLWLNIRGKEAAALSMFHVSTPLPVMTGGFLSCILGLVLPLAYGFQPDLVLVALGPGHGLQGPHAALLAAMLRGLAGGRVLALLEENSTPQLAGILARVLNGEAPPSLGPSSVASPEDVQALMYLRGQLEPQWKMLQCHPHLVA
Take B2: the binding entry in assay [1] and in assay [2] was “binds” throughout.
